Experimental data reported in PubChem BioAssay AID2685 (National Center for Advancing Translational Sciences (NCATS), 2010).
Some of the results follow. The main result of the screen is listed elsewhere. These columns were measured beside it and carry no call. The list favours compounds with an active or inconclusive main result. Words in brackets tell the shape of the fitted curve; partial curves, single points and poor fits give uncertain potencies.

Assay: qHTS Assay for Lipid Storage Modulators in Drosophila S3 Cells;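 for cell number change: cells counted by Cell Tracker Red CMTPX staining in the red channel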
Details: BODIPY lipid droplet fluorescence, 18-24 h; for cell number change: measured here: cell count max response, cells fed with added oleic acid
Procedure, shortened: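 Drosophila S3 cells loaded with oleic acid (400 uM, as added) and compounds at several concentrations; lipid droplets imaged by 488-nm laser-scanning cytometry, 500–530 nm intensity and object ratio to cell channel. Percent activity normalized to 20 uM Triacsin C.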

[1] = measured here: lipid fluorescence (Fed channel) AC50, cells fed with added oleic acid
[2] = measured here: cell number channel AC50, cells fed with added oleic acid

SMILES	cell number change [%]	AC50 [1]	AC50 [2]
COC(=O)c1ccc(OCCCCN(C)Cc2ccccc2)cc1	-1.17	–	–
Cc1ccc(S(=O)(=O)C2(C(=O)N3CCCCCC3)CC2)cc1	-14.8	25900 nM [falling, partial curve, poor fit]	–
O=C(CSCc1cnn(-c2ccccc2)c1-n1cccc1)NCc1cccs1	–	–	5800 nM [rising, single point]
COc1ccc(C(=O)OCC(=O)c2c(N)n(C)c(=O)n(C)c2=O)cc1OC	53.5	–	820 nM [rising, full curve]
Cc1cccc(NC(=S)NCCC(c2ccccc2)c2ccccc2)c1	-37	4110 nM [falling, full curve]	3660 nM [falling, full curve]
COc1ccc(C2CC(=O)OC3=C2C(=O)CC(C)(C)C3)c(OC)c1 (centres undefined)	25.9	–	25.9 nM [rising, full curve, poor fit]
CS(=O)(=O)c1ccc(C(=O)N2CCN(C(=O)c3ccco3)CC2)cc1	-10.7	5.17 nM [rising, full curve, poor fit]	–
Cc1ccc(N=Cc2c(O)ccc3ccccc23)cc1F	-26.7	5.17 nM [falling, full curve, poor fit]	–
Cc1ccc(CN2CCN(Cc3ccccc3)C(CCO)C2)s1 (centres undefined)	-34.7	259 nM [falling, full curve, poor fit]	11.6 nM [falling, full curve, poor fit]
COc1ccc(Br)cc1C(=O)Nc1ccc(N2CCN(S(C)(=O)=O)CC2)cc1	–	2310 nM [rising, partial curve]	2910 nM [rising, partial curve]
CC1CC1C(=O)OCC(=O)NNC(=O)COc1ccc(Br)cc1 (centres undefined)	-50.6	–	16400 nM [falling, single point]
O=C(NCCc1csc(-c2cccnc2)n1)c1cccc2ccccc12	22.8	130 nM [rising, full curve, poor fit]	164 nM [rising, full curve, poor fit]
CC(=O)Nc1c(Nc2ccccc2)c2ccccc2oc1=O	8.96	9200 nM [rising, partial curve, poor fit]	–
CCOc1ccc(S(=O)(=O)N2CCOCC2)cc1NC(=O)C1CCC1	6.16	5.17 nM [rising, full curve, poor fit]	–
C=CCn1c(=O)c(C(=O)NCCc2ccccc2)c(O)c2ccccc21	-0.0718	1160 nM [rising, partial curve]	–
O=C1CCC(=O)N1CCc1c[nH]c2ccccc12	4.27	82 nM [falling, full curve]	–
Cn1nc(C(F)(F)F)c2cc(NC(=O)OCc3ccc(F)cc3)sc21	-29.6	29100 nM [falling, single point]	–
COc1cccc(-n2c(SCC(=O)Nc3cc(C)on3)nc3c([nH]c4ccccc43)c2=O)c1	13.4	65.1 nM [rising, full curve, poor fit]	–
Cc1ccccc1OCCn1c(CCNC(=O)C(C)C)nc2ccccc21	-3.62	461 nM [rising, partial curve]	–

SMILES	cell number change [%]	AC50 [1]	AC50 [2]
Cc1ccccc1N(C(=O)CNC(=O)c1ccco1)C(C(=O)NC1CCCCC1)c1ccncc1 (centres undefined)	6.52	–	–
CC(=O)Nc1cccc(C(=O)OCC(=O)c2ccc3c(c2)OCO3)c1	–	–	3260 nM [rising, single point]
O=C(c1cc(S(=O)(=O)N2CCOCC2)ccc1Cl)N1CCN(c2ccccn2)CC1	–	103 nM [rising, partial curve, poor fit]	146 nM [rising, single point]
COc1ccc(C(=O)COC(=O)c2cnc(C)cn2)cc1OC	-0.968	2060 nM [rising, full curve]	–
COc1ccc(N(C(=O)C2CCCCC2)C2C=CS(=O)(=O)C2)c(OC)c1 (centres undefined)	–	6510 nM [rising, single point]	6510 nM [rising, single point]
Cc1cc([N+](=O)[O-])ccc1-c1ccc(/C=N/NC(=O)Cc2ccccc2)o1	-15.6	20600 nM [falling, single point]	–
COc1cc(C(=O)N2CCN(C(=O)Cc3ccccc3)CC2)cc(OC)c1OC	10	29100 nM [rising, single point]	–
COc1ccc(NC(=S)SC)cc1OC	17.9	580 nM [rising, single point]	517 nM [rising, partial curve, poor fit]
Cc1ccc(S(=O)(=O)N2CCC(=O)N(CCOC(=O)Nc3cc(C)cc(C)c3)CC2)cc1	23.5	9200 nM [rising, partial curve]	–
COc1ccc(OC)c(/C=N/NC(=O)CC(=O)NC2CCCCC2)c1	-27	6510 nM [rising, single point]	–
CC(C)C[C@H](NC(=O)[C@@H]1O[C@H]1C(=O)O)C(=O)NCCCCN=C(N)N	-15.7	651 nM [falling, full curve, poor fit]	–
COc1cccc(-c2c(-c3cc(OC)cc(OC)c3)n(C)c3ccc(-c4cccc5[nH]ccc45)cc23)c1	7.89	–	–
CCOC(=O)CSc1nc2c(c(-c3ccc(C)o3)c1C#N)CCCC2	-21.2	4110 nM [falling, full curve, poor fit]	–
CCCC(=O)Nc1nnc(CCc2ccccc2)s1	4.93	2060 nM [rising, partial curve, poor fit]	–
Cc1nc(N2CCN(C(=O)c3ccco3)CC2)nc2c1C(=O)CCC2	-4.86	4610 nM [falling, single point]	–
CC1CCN(c2ccc(N3C(=O)C4CCCCC4C3=O)cc2[N+](=O)[O-])CC1 (centres undefined)	-24.6	731 nM [falling, full curve]	–
Cc1ccc(S(=O)(=O)N(C)C)cc1NC(=O)CN1CCCC1	-3.85	461 nM [falling, partial curve]	–
Nc1nc(CC(=O)CSc2ccc(Cl)cc2)nc(Nc2ccc(F)cc2)n1	-11.8	6510 nM [falling, single point]	2910 nM [falling, single point]

Exported field by field: part of the list above
Cc1ccc(S(=O)(=O)C2(C(=O)N3CCCCCC3)CC2)cc1
  cell number change [%]: -14.8
  AC50 [1]: 25900 nM [falling, partial curve, poor fit]
O=C(CSCc1cnn(-c2ccccc2)c1-n1cccc1)NCc1cccs1
  AC50 [2]: 5800 nM [rising, single point]
